In patent US20240173292A1, “COMPOUNDS THAT SYNERGIZE WITH COPPER TO KILL STREPTOCOCCUS PNEUMONIAE” (priority 2021, published 2024):
At least one compound was matched to its structure with a doubt left.

Tested on: Schistosoma mansoni
Test: Juvenile parasite viability screening (schistosomula)
Format: cell-based
Settings: newly transformed and lung stage schistosomula

CCN(CC)C(=S)S [DETDC, N,N-diethyldithiocarbamate]
efficacy at higher concentrations: not effective
CDT / viability of schistosomula (with 10 μM copper): efficacious
